Measurements reported in publication PMC10782416.

Protein sequences, listed by entry. Tags and fused reporters are not part of them. Residues count along the entry.
UniProt P01127, 82-190: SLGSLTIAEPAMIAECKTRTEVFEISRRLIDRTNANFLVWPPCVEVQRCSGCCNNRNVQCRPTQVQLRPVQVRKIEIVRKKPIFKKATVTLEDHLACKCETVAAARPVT
UniProt P19338, whole entry: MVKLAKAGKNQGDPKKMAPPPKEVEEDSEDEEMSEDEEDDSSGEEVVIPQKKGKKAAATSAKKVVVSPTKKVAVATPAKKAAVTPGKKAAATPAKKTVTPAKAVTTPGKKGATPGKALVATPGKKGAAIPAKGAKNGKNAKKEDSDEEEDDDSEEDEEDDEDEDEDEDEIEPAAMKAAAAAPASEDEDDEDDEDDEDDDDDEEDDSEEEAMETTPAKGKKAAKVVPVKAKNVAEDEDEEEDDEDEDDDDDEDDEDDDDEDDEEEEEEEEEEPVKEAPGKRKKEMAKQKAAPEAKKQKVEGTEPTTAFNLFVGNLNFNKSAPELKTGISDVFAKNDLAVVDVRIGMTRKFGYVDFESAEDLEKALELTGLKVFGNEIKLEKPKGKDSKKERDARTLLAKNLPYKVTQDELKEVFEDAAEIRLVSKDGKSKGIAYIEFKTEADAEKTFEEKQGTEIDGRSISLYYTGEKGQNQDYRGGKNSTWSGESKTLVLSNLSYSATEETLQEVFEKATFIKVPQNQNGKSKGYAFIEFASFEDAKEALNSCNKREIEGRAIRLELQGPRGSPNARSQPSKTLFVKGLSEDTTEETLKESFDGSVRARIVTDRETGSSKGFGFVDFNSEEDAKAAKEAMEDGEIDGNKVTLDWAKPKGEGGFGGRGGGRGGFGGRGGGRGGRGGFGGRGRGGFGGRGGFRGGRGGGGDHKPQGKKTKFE

Assays:
[1] = target: human serum albumin (HSA) (Homo sapiens) (UniProt P02768); assay: FCS; details: HSA 10 uM to 2 mM, weak residual binding not excluded; PBS pH 7.4; aptamer folded in PBS with 5 mM MgCl2 (1 mM for AS1411 and 36t), 90 C 2 min then cooled; final buffer not detailed; overnight at room temperature; native protein; label: 5'-atto633; folded or branched DNA
PDGF-BB (Homo sapiens) [2] = target: PDGF-BB (Homo sapiens) (UniProt P01127); assay: filter binding; details: PBS pH 7.4; aptamer folded in PBS with 5 mM MgCl2 (1 mM for AS1411 and 36t), 90 C 2 min then cooled; final buffer not detailed; overnight at room temperature; commercial protein; label: 5'-atto633; folded or branched DNA
PDGF-BB (Homo sapiens) [3] = target: PDGF-BB (Homo sapiens) (UniProt P01127); assay: BLI; details: PBS pH 7.4; aptamer folded in PBS with 5 mM MgCl2 (1 mM for AS1411 and 36t), 90 C 2 min then cooled; final buffer not detailed; overnight at room temperature; commercial protein; label: 5'-atto633; folded or branched DNA
[4] = target: nucleolin (NCL) (Homo sapiens) (UniProt P19338); assay: SPR; details: PBS pH 7.4; aptamer folded in PBS with 5 mM MgCl2 (1 mM for AS1411 and 36t), 90 C 2 min then cooled; final buffer not detailed; overnight at room temperature; commercial protein; label: 5'-atto633; folded or branched DNA

ATCAGGTGGATGGTAGCTCGGTCGGGGTGGGTGGGTTGGCAAGTCTGATTA [CLN3]
Kd [1]: > 300000 nM

CACAGGCTACGGCACGTAGAGCATCACCATGATCCTGTG [36t]
Kd (PDGF-BB (Homo sapiens) [2]): 0.1 nM | Kd (PDGF-BB (Homo sapiens) [3]): 1 nM

TTTGGTGGTGGTGGTTGTGGTGGTGGTGG [AS1411]
Kd [4]: 34.2 nM

For some of these results: For at least one entry, the source does not settle the construct or the ends of the probe.
